Data reported in PubChem BioAssay AID1671190 (National Center for Advancing Translational Sciences (NCATS), 2021).
Where “and” joins values, the source holds several entries; their conditions need not be identical. Identical values can stand only once. The campaign covered roughly 580,000 compounds. About 6,100 (1.1%) were called active. Inconclusive means that the source gave no clear call. Such entries were picked first, then a sample of the others. Calls come from the whole dose curve; as a rule, active = well fitted inhibition curve with a large enough effect; inconclusive = small, poorly fitted or top-dose-only effect, or another doubt; inactive = no such curve, though single readings can be large or run the other way. Potencies beside an inconclusive call are fits to weak or partial responses and may not hold up.

Chains of the proteins cited; added tags and fusions are not shown. Lines headed by an entry give the natural chain unless they say otherwise; changes in a name come on top.
UniProt P18054: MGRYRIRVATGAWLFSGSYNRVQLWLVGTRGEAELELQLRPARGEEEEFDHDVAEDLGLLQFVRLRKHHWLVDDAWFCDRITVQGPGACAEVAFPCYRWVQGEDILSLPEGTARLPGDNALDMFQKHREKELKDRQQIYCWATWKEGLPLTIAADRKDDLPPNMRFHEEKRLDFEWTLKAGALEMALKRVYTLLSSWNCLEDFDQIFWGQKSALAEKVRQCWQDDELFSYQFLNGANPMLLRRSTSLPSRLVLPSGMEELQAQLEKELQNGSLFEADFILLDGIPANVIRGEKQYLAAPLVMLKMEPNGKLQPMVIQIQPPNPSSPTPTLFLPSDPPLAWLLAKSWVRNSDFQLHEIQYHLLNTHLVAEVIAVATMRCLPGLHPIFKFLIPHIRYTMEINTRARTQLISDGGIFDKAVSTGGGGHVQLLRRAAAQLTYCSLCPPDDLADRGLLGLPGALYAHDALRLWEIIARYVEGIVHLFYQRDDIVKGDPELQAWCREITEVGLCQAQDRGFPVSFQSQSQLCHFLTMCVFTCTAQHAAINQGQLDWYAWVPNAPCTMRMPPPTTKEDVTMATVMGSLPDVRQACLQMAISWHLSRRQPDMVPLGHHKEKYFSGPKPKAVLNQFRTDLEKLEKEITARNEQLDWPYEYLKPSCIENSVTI

molecular target: Polyunsaturated fatty acid lipoxygenase ALOX12 (Homo sapiens) (UniProt P18054); experiment: Primary qHTS assay for inhibitors of human arachidonate 12S-lipoxygenase (ALOX12): Round 2; settings: purified 12hLO, xylenol orange hydroperoxide absorbance; series mostly up to 108 µM
How it was run: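 Hydroperoxide product was detected by ferrous iron/xylenol orange as the 573 to 405 nm absorbance ratio. Arachidonic acid at 40 uM (final) was turned over for 30 min at room temperature by 150 nM human 12hLO, pH 7.0 Hepes buffer, after 15 min compound preincubation.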
Potency is the fitted concentration of half-maximal effect.

| Structure (SMILES) | Potency |
| --- | --- |
| Cc1ccc(NC(=O)CN(C)C(=O)c2oc3ccccc3c2C)cc1 | inconclusive: 112 µM [inhibitor, single point] |
| N#C/C(=C\c1cccs1)C(=O)Nc1nccs1 | inactive |
| CCn1cc2nc(SCc3cccc(OC)c3)n(Cc3ccc(Cl)cc3)c(=O)c2n1 | inconclusive: 3.16 µM [inhibitor, full curve, poor fit] |
| CN1CCN(c2ccc3c(c2)C2CC3CCN2C(=O)OCc2ccccc2)CC1 (centres undefined) | inconclusive: 79.4 µM [inhibitor, partial curve, poor fit] |
| O=C(CN1C2=NCCN2c2ccccc21)c1ccc(Br)s1 | inactive |
| Cc1cccc(NC(=O)C(c2cccc([N+](=O)[O-])c2)N2CCCCC2)c1 (centres undefined) | inactive |
| COC(=O)c1cc2sccc2n1Cc1ccccc1 | inconclusive: 35.5 µM [inhibitor, partial curve, poor fit] |
| Cc1ccc(C(=O)N2CCc3ccccc32)o1 | inactive |
| NCCCCCC(N)(C(=O)O)c1ccccc1 (centres undefined) | inactive |
| COc1ccc(Nc2cc(NCCCO)c([N+](=O)[O-])c3nonc23)cc1 | inactive |
| O=C(Nc1ccc(C(=O)O)cc1)/C(=C\C=C\c1ccccc1)NC(=O)c1ccccc1Cl | inactive |
| O=[N+]([O-])c1ccc(O)c2ncccc12 | inconclusive: 7.21 µM [inhibitor, partial curve, poor fit] |
| CC(C)NC(=O)c1onc(CSc2ccc(F)c(F)c2)c1C(=O)O | active: 31.6 µM |
| O=C(Cc1nn[nH]n1)NCc1ccccc1Cl | inactive |
| CCN(CC)CCn1c2ccccc2c2nc3ccccc3nc21 | inconclusive: 28.2 µM [inhibitor, partial curve] |
| O=C(c1cc(-c2cccs2)nc2ccccc12)N1CCN(c2cccc(C(F)(F)F)c2)CC1 | inactive |
| CC(=O)Nc1ccc(S(=O)(=O)N2CCN(Cc3cccs3)CC2)cc1 | inconclusive: 0.891 µM [inhibitor, full curve] |
| CCCCCOC(=O)CC(C(=O)OCCCCC)N1CCCCC1 (centres undefined) | inconclusive: 35.5 µM [inhibitor, partial curve, poor fit] |
| O=C(CSc1nc2ccccc2o1)NCC(=O)N1CCCC1 | inactive |
| COc1ccc(-c2noc(CN3C(=O)c4ccccc4C3=O)n2)cc1 | inconclusive: 100 µM [inhibitor, single point] |
| CCOC(=O)N1CCN(C(=O)COc2ccc(S(=O)(=O)NCc3ccccc3)cc2)CC1 | inactive |
| C=CCn1c(O)c(C=Nc2ccccc2)sc1=S | inconclusive: 5.01 µM [inhibitor, full curve, poor fit] |
| Cc1cc(NS(=O)(=O)c2ccc(NC(=O)COc3c(C)cc(Br)cc3C)cc2)no1 | inconclusive: 3.98 µM [inhibitor, full curve, poor fit] |

| Structure (SMILES) | Potency |
| --- | --- |
| COc1ccc(-c2noc(CNC(=O)COc3cccc(C)c3C)n2)cc1OC | inactive |
| O=C(Cn1cc2c(n1)CCCCC2)N1CCCCC1 | inconclusive: 11.2 µM [inhibitor, partial curve, poor fit] |
| Fc1cccc(Cc2c(-c3cccc(Br)c3)nc3c(Cl)cc(C(F)(F)F)cn23)c1 | inconclusive: 50.1 µM [inhibitor, partial curve, poor fit] |
| COc1cccc(NS(=O)(=O)c2ccc3[nH]cc(C(=O)NC4CCCCC4)c(=O)c3c2)c1 | inconclusive: 25.1 µM [inhibitor, full curve, poor fit] |
| CC(=O)N1CCN(c2ccc(NCc3cccc4ccccc34)cc2)CC1 | inconclusive: 14.1 µM [inhibitor, partial curve, poor fit] |
| CCN(CC)C(=O)C1=C(C)N(Cc2ccc(OC)cc2)C(=O)C(CC(=O)NCC2CCCCC2)C1 (centres undefined) | inconclusive: 44.7 µM [inhibitor, partial curve, poor fit] |
| CCN(Cc1ccccc1)C(=O)C1CCN(CC2CC=CCC2)CC1 (centres undefined) | inconclusive: 6.31 µM [inhibitor, full curve] |
| O=C(Nc1c(C(=O)Nc2ccccc2)cnn1-c1ccccc1)c1ccco1 | inactive |
| O=C(Nc1cccc2cccnc12)NC1CCCCC1 | inactive |
| CCOC(=O)C1=CCN(S(=O)(=O)c2ccccc2)C1c1ccc(Cl)cc1 (centres undefined) | inconclusive: 39.8 µM [inhibitor, single point] |
| O=C(C1CCN(CC2CC=CCC2)CC1)N(CCc1ccccc1)Cc1ccccc1 (centres undefined) | inconclusive: 3.98 µM [inhibitor, full curve, poor fit] |
| O=C(CCc1ccco1)OCC(=O)c1ccc2c(c1)OCO2 | inconclusive: 44.7 µM [inhibitor, partial curve, poor fit] |
| Cc1ccc2nc3n(c2c1)[C@@H](CNS(=O)(=O)c1ccccc1)COC3 | inconclusive: 25.1 µM [inhibitor, full curve] |
| CCOC(=O)c1c(NC(=O)CSc2ncnc3ccccc23)sc2c1CCCC2 | inconclusive: 89.1 µM [inhibitor, partial curve, poor fit] |
| Cc1cccc(NC(=O)c2cc([N+](=O)[O-])ccc2NC2CCCCC2)c1 | inactive |
| COc1ccc([C@H]2C=C(C(=O)O)O[C@@H](OCc3ccc(CO)cc3)C2)cc1 | inconclusive: 0.398 µM [inhibitor, full curve, poor fit] |
| CCC(=O)N1N=C(c2c(-c3ccccc3)c3cc(C)ccc3[nH]c2=O)CC1c1ccco1 (centres undefined) | inconclusive: 56.2 µM [inhibitor, single point] |
| CN1CCc2nc(SCC(=O)Nc3ccc(OC(F)(F)F)cc3)c(C#N)c(-c3cccs3)c2C1 | inconclusive: 50.1 µM [inhibitor, partial curve, poor fit] |
| COc1cccc(-c2cc(C(=O)NC3CCCC3)c3ccccc3n2)c1 | inconclusive: 89.1 µM [inhibitor, partial curve, poor fit] |
| COc1ccc(N2C(=O)C(CC(=O)Nc3ccc(F)cc3)N(CCC3=CCCCC3)C2=O)cc1 (centres undefined) | inconclusive: 126 µM [inhibitor, single point] |
| O=C(/C=C/c1ccc(Cl)cc1)NC(=S)Nc1ccccc1C(=O)O | inconclusive: 112 µM [inhibitor, partial curve, poor fit] |
| CCOC(=O)c1c(CSC(=N)N)n(-c2ccc(C)cc2)c2cc(Br)c(OC(C)=O)cc12 | inconclusive: 126 µM [inhibitor, single point] |
| C=CCC(NC(C)c1ccccc1)c1ccco1 (centres undefined) | inconclusive: 0.501 µM [inhibitor, full curve, poor fit] |

| Structure (SMILES) | Potency |
| --- | --- |
| CS/C(N)=C(C#N)/C(C#N)=C(\N)SC | inconclusive: 22.4 µM [inhibitor, partial curve, poor fit] |
| Nc1ccc(Nc2ccccc2)c(S(=O)(=O)O)c1 | inconclusive: 50.1 µM [inhibitor, partial curve, poor fit] |
| Cc1ccccc1C(=O)N1CCN(c2ccc([N+](=O)[O-])c(NCc3cccnc3)c2)CC1 | inconclusive: 39.8 µM [inhibitor, partial curve, poor fit] |
| CCc1cccc(C)c1NC(=O)CCc1c(C)nc2c3ccccc3nn2c1C | inactive |
| Cc1noc(C)c1-c1cn(C)c(=O)n2cc(COc3ccc(Cl)cc3)nc12 | inconclusive: 20 µM [inhibitor, partial curve, poor fit] |
| COc1ccc2ccccc2c1/C=C(/C#N)c1nc2ccccc2[nH]1 | inconclusive: 28.2 µM [inhibitor, full curve, poor fit] |
| CCOC(=O)c1c(/N=C/c2ccc(OC)cc2O)sc2c1CCN(C)C2 | inconclusive: 10 µM [inhibitor, partial curve, poor fit] |
| N#Cc1ccccc1-c1ccc(C(=O)O)o1 | inconclusive: 20 µM [inhibitor, full curve] |
| COc1ccc(C(=O)/C(C#N)=C\c2ccccc2C(F)(F)F)cc1 | inconclusive: 6.31 µM [inhibitor, full curve, poor fit] |
| CC(=O)NCCc1ccc(S(=O)(=O)Nc2ccc3c(c2)OCCO3)cc1 | inconclusive: 141 µM [inhibitor, single point] |
| O=C(NN=C1CCCCCC1)c1ccc(Cl)s1 | inactive |
| CCCN1CCN(CC(O)COC(c2ccc(OC)cc2)c2ccc(OC)cc2)CC1 (centres undefined) | inconclusive: 3.55 µM [inhibitor, full curve, poor fit] |
| Cc1ccc(-n2c(SCc3nnnn3-c3ccccc3)nnc2N2CCCCC2)cc1 | inactive |
| C/C(Cc1ccccc1)=N\NC(N)=S | inconclusive: 63.1 µM [inhibitor, partial curve, poor fit] |
| CCOC(=O)c1cccc(NC(=O)[C@H](C(C)C)n2nnc3ccccc3c2=O)c1 | inactive |
| Oc1ccc(-n2nnnc2SCc2ncc(-c3ccccc3)o2)cc1 | inconclusive: 44.7 µM [inhibitor, partial curve, poor fit] |
| Cn1nccc1C(=O)Nc1cc(Cl)ccc1Cl | inconclusive: 56.2 µM [inhibitor, partial curve, poor fit] |
| CC1=C[C@@H](CO)[C@H](C(C)C)C[C@H]1Cc1nnc(-c2ccc(N(C)C)cc2)o1 | inactive |
| Nc1c(Br)cc2c([nH]c(=O)c3ccccc32)c1Br | inactive |
| O=c1cc(O)c2sc3nc(-c4cccs4)cc(-c4cccs4)c3c2[nH]1 | active: 8.91 µM and active: 10 µM |
| Cc1ccc2c(N)c(C#N)sc2n1 | inactive |
| CC(C)OCCCNC(=O)[C@H]1CN(Cc2ccccc2)C[C@H]1C(=O)O | inactive |
| COc1ccc(C(C(=O)NC(C)(C)C)N(C(=O)CCC(=O)Nc2cc(C)on2)c2ccccc2F)cc1 (centres undefined) | inconclusive: 112 µM [inhibitor, single point] |
